Test results from PubChem BioAssay AID504834 (National Center for Advancing Translational Sciences (NCATS), 2011).
Out of some 320,000 compounds screened, about 22,000 (6.9%) were called active. The shares of active, inactive and inconclusive entries below differ from those in the screen. The call rests on the fitted dose curve; in most records, active means well fitted inhibition curve with a large enough effect; inconclusive means small, poorly fitted or top-dose-only effect, or another doubt; inactive means no such curve, though single readings can be large or run the other way. Potencies of inconclusive entries are doubtful fits and often do not repeat.
On the % scale 0 is the no-effect control and ±100 the full control effect; potency means the concentration at half of the fitted maximal effect.

Test: Primary qHTS for delayed death inhibitors of the malarial parasite plastid, 96 hour incubation
Conditions: P. falciparum luciferase reporter growth; series mostly up to 28.7 µM; activity change, negative = inhibition: at the top concentration
How it was run: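 Two parasite generations (96 h, 37 C, 5% CO2) of compound exposure in infected erythrocytes (0.05% parasitemia, 2% hematocrit). Luciferase-reporter P. falciparum; decreased luminescence indicates inhibited growth, aimed at apicoplast-acting delayed death.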
For `CN1CCN(C(=O)c2cnn3c(C(F)(F)F)cc(-c4ccc5c(c4)OCO5)nc23)CC1`, the “activity change, negative = inhibition” value was inactive: -27.6%. With `O=C(NCc1ccccn1)c1ccc(COc2ccc(Cl)cc2)o1` the Potency was inconclusive: 13.1 µM [inhibitor, single point]. With `Cc1ccc(C(=O)N/C(=C\c2ccccc2)C(=O)NCc2cccnc2)cc1` the Potency was inconclusive: 10.4 µM [inhibitor, partial curve, poor fit]. In the case of `CC(C)CN(C(=O)CSc1nn(-c2ccc(Cl)cc2)c(=S)s1)C1CCS(=O)(=O)C1` (centres undefined), the Potency is reported as inconclusive: 1.04 µM [inhibitor, full curve, poor fit]. For `Cc1cc(OCCOCCNCc2ccccc2)ccc1C(C)C`, the Potency was active: 7.38 µM. For `COc1ccccc1CNC(=O)C1CCCN(S(=O)(=O)c2ccc3c(c2)CC(C)N3C(C)=O)C1` (centres undefined), the Potency was inconclusive: 6.57 µM [inhibitor, partial curve, poor fit]. With `COc1ccccc1CNC(=O)COC(=O)CCN=C1NS(=O)(=O)c2ccccc21` the “activity change, negative = inhibition” value was inactive: 31.8%. With `COCC(C)NCc1ccc(OC)c(Br)c1` (centres undefined) the Potency was active: 11.7 µM. With `CN1CCC(=O)N(CCSc2ccc(Br)cc2)CC1` the “activity change, negative = inhibition” value was inactive: 32.2%. In the case of `CC(C)=CCN1CCN(Cc2nc(C(C)C)cs2)CC1CCO` (centres undefined), the Potency is reported as inconclusive: 13.1 µM [inhibitor, partial curve, poor fit]. With `COc1ccc(-c2nnc(SCC(=O)NCc3cccs3)n2CC(C)C)cc1` the Potency was inconclusive: 16.5 µM [inhibitor, partial curve, poor fit]. For `COc1cc(C(CC(=O)Nc2cccc(C)n2)N2Cc3ccccc3C2=O)cc(OC)c1OC` (centres undefined), the “activity change, negative = inhibition” value was inactive: 9.16%. For `CCC1(C)Cc2c(sc3nc(NN)n(C)c(=O)c23)CO1` (centres undefined), the Potency was inconclusive: 9.28 µM [inhibitor, partial curve, poor fit]. In the case of `O=C(Nc1ccc(Cc2nc3ccccc3s2)cc1)c1ccncc1`, the Potency is reported as inconclusive: 9.28 µM [inhibitor, partial curve]. For `COCCNS(=O)(=O)c1cc(C)c(C)cc1C`, the Potency was inconclusive: 5.22 µM [inhibitor, partial curve, poor fit]. In the case of `Cc1ccc(Cl)cc1NC(=O)CC(O)(C(F)(F)F)C(F)(F)F`, the “activity change, negative = inhibition” value is reported as inactive: 24.3%. For `COc1ccc(Cl)cc1N1C(=O)/C(=C\c2sccc2C)N=C1SCC(=O)NC1CC1`, the Potency was active: 9.28 µM. With `COc1ccc(OC)c(NC(=O)CN2CCc3ccccc3C2)c1` the Potency was inconclusive: 10.4 µM [inhibitor, single point]. With `Nc1cc(=O)nc(SCC(=O)N(C2CCCCC2)C2CCCCC2)n1-c1ccccc1` the Potency was inconclusive: 18.5 µM [inhibitor, single point]. With `CCOC(=O)C(Cc1ccccc1)NC(=O)CCc1nnc2ccc(N3CCOCC3)nn12` (centres undefined) the Potency was inconclusive: 10.4 µM [inhibitor, single point]. With `O=C(COC(=O)CC(c1ccccc1)c1ccccc1)NCc1ccccc1` the Potency was inconclusive: 18.5 µM [inhibitor, single point]. In the case of `O=c1[nH]c2c(s1)C(c1ccc(O)cc1)C1C3CCC(C3)C1S2` (centres undefined), the “activity change, negative = inhibition” value is reported as inactive: -2.75%. In the case of `O=C(CNC(=S)N(Cc1ccccc1)Cc1cccnc1)NC1CCCC1`, the “activity change, negative = inhibition” value is reported as inactive: -4.87%. In the case of `CC1CCc2c(sc(NC(=O)CSc3ncnc4c3cnn4-c3ccccc3Cl)c2C#N)C1` (centres undefined), the Potency is reported as inconclusive: 0.147 µM [inhibitor, full curve, poor fit]. With `CC(=O)c1cccc(NC(=S)Nc2ccn(Cc3cccc4ccccc34)n2)c1` the Potency was inconclusive: 3.29 µM [inhibitor, full curve, poor fit]. In the case of `Cc1ccc(N(CC(=O)NC(C)c2ccccc2)S(=O)(=O)c2cccs2)cc1` (centres undefined), the Potency is reported as inconclusive: 10.4 µM [inhibitor, single point]. In the case of `Cc1sc2nc3n(c(=O)c2c1C)CCCS3`, the Potency is reported as inconclusive: 2.62 µM [inhibitor, full curve]. With `O=S(=O)(NCc1nc(-c2ccccc2)no1)c1ccc(F)cc1` the “activity change, negative = inhibition” value was inactive: -27.7%. In the case of `Cc1ccccc1C(C(=O)NC1CCCC1)N(C(=O)Cc1cccs1)c1ccc2c(c1)OCCO2` (centres undefined), the Potency is reported as inconclusive: 20.8 µM [inhibitor, single point]. For `COc1cccc(CN2CCNCC2)c1OC`, the Potency was inconclusive: 14.7 µM [inhibitor, partial curve, poor fit]. For `CCC(=O)c1cc(F)c(N2CCN(S(=O)(=O)c3ccc(C)cc3)CC2)cc1C`, the Potency was active: 10.4 µM. With `COc1ccc(S(=O)(=O)N(CCCN2CCCC2=O)Cc2cc3c(C)ccc(C)c3[nH]c2=O)cc1` the Potency was inconclusive: 18.5 µM [inhibitor, single point]. With `CCc1cccc2c(C(=O)COC(=O)/C=C/c3ccccc3OC)c[nH]c12` the Potency was active: 13.1 µM. With `O=c1nc2n(c3c1oc1ccccc13)Cc1ccccc1-2` the Potency was inconclusive: 8.28 µM [inhibitor, partial curve, poor fit]. In the case of `O=C(NN=C1CCCC1)c1ccccc1O`, the Potency is reported as inconclusive: 8.28 µM [inhibitor, partial curve]. For `COc1ccc(C(=O)N/C(=C/c2ccccc2F)C(=O)NCCN2CCOCC2)cc1OC`, the Potency was inconclusive: 18.5 µM [inhibitor, single point]. In the case of `COc1ccc(OC)c(Nc2nc(NCc3ccco3)c3ccccc3n2)c1`, the “activity change, negative = inhibition” value is reported as inactive: 43.3%. For `O=C(O)CS(=O)(=O)c1ccc(Oc2ccc(S(=O)(=O)CC(=O)O)cc2)cc1`, the Potency was inconclusive: 0.0828 µM [inhibitor, full curve, poor fit]. With `CCc1ccc(NC(=O)Nc2cccs2)cc1` the “activity change, negative = inhibition” value was inactive: 67.5%. For `Cc1cc(Cl)ccc1N1C(=O)CC(SCCC(=O)O)C1=O` (centres undefined), the Potency was inconclusive: 11.7 µM [inhibitor, partial curve, poor fit]. With `COc1ccc(-c2cc(=NCCCCCC(=O)O)c3cc(C)ccc3o2)cc1` the Potency was inconclusive: 18.5 µM [inhibitor, single point]. With `C[C@@H]1C[C@H](O)c2cc(Cl)ccc2N1` the “activity change, negative = inhibition” value was inactive: 3.92%. In the case of `COC(=O)c1cc2oc(C)cc2n1CC(=O)Nc1ccc(OC)c(OC)c1OC`, the Potency is reported as inconclusive: 7.38 µM [inhibitor, partial curve]. With `CCOC(=O)CCNC(=O)N1CCCC(C(=O)c2cccc(OC(C)C)c2)C1` (centres undefined) the Potency was inconclusive: 18.5 µM [inhibitor, single point].
